From article PMC9597602, “Metal Complexes as Antifungals? From a Crowd-Sourced Compound Library to the First In Vivo Experiments” (JACS Au, 2022)

Columns and labels:
[1] = test system: human red blood cells; assay type: cell-based; conditions: Therapeutic Index with respect to haemolysis against the best MIC measured
Description: Human whole blood (Australian Red Cross) was washed three times with 3 vol of 0.9% NaCl and resuspended in a concentration of 0.5 × 10^8 cells/mL, determined by a manual cell count in a Neubauer hemocytometer. […] After incubation, the plates were centrifuged at 1000g for 10 min to pellet cells and debris; 25 μL of the supernatant was then transferred to reading plates (384-well, polystyrene plated (PS), Corning CLS3680), with hemolysis determined by measuring the supernatant absorbance at […] (OD405) using cells without inhibitors as negative control and cells with 1% Triton X-100 (Sigma T8787) as positive control. […] Melittin (Sigma M2272) was used as internal control on each plate.

[2] = Therapeutic index against the best MIC measured; conditions: lowest TI obtained in either TI_CC50 or TI_HC10

For `c1ccc([PH]([Au][S]c2ccccn2)(c2ccccc2)c2ccccc2)cc1` [Au2], the TI_HC10 [1] was 8333 and the “Minimum TI” value [2] was 35.

For some assays here: The source's definition of the ratio is not given here.
